ChEMBL document CHEMBL1145120, “Molecular modeling of the three-dimensional structure of dopamine 3 (D3) subtype receptor: discovery of novel and potent D3 ligands through a hybrid pharmacophore- and structure-based database searching approach” (J Med Chem, 2003)

Sequences of proteins named here, by UniProt entry; tags and fusion partners are left off.
UniProt P35462, whole entry: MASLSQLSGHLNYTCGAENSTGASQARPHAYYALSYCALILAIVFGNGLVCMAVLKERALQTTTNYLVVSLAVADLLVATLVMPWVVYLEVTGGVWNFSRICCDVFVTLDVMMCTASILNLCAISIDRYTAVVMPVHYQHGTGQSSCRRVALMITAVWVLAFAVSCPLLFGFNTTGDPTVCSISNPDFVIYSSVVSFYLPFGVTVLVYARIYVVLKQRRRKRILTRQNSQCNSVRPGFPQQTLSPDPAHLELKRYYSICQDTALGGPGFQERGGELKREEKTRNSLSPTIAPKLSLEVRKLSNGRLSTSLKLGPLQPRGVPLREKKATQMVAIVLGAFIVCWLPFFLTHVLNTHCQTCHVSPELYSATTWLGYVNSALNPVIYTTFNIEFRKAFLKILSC

Molecular target: D(3) dopamine receptor (Homo sapiens, UniProt P35462)
Assay: biochemical

**Q.** With O=c1[nH]c2ccccc2n1CCCN1CCC(n2c(=O)[nH]c3cc(Cl)ccc32)CC1 [DOMPERIDONE] as the compound, how does the Ki read?
**A.** Its Ki is 3.5 nM.
